The text below walks through data of publication PMC6721605.

The assay concerns the target dynamin-like protein B (dlpB) of Dictyostelium discoideum (Dictyostelium discoideum (endogenous in AX2)). As to the kind of experiment: co-IP; anti-dlpB antibodies on Dynabeads protein G; lysate of non-synchronized (interphase) wild-type cells; lysis buffer 150 mM NaCl, 5 mM EGTA, 5 mM EDTA, 1% Triton X-100, 20 mM Tris-HCl pH 7.5; western blot with anti-dlpA and anti-dlpB. In general terms: Immunoblotting shows a protein as a band on a membrane.

No constants are given. Whether binding was seen depends on the method and setting. In cells and extracts the contact can be indirect. A result given as binding can be weak or reduced; the word gives no strength.

B1: dynamin-like protein A (dlpA) of Dictyostelium discoideum (protein, UniProt Q55F94 1-880)
chain: MSVFKKKDKSDDKKKKHDEETPQGTFQPASQSTSNTNLNSLASSVNNGASVGSTNGSTPNNSNGSTPTYNHNNSAEELEKQKKEEDEKRKKSELEAAAAVVAKKKEDEEKQRKEQVELERKRRDEEIRRTNAAAANAANKELNEQVEISSLEQMGKLDPSSTIHDMFSFFPNEVYNSYEKLQYFSRDLNTAVSHPEIVFVGPRSSGKSSLIEAFIGRALNIVGGGNIVGVGGSNANGCSKRVLYLQFTNNIDFEVPKVTIKKDNTIKEFDHDIIVSIEQLNENLAKRNQLTNDYIEEPIYVSIESRTTLNLTLIDSPGLLFDQSQAESNKIESIVSSLLRPSHRLIIAVESCSQDWKSMSMGQYLKKIDPELSRSTFVFTKFHHTVRGFSSTRDINKYLSGTVPDIKGFFVTLPNHQVRASYSEANRFQEKIYQAHKRDMHALEQLQYDKRYERTIGVAPLRRYILNIVWKSYQDTIPRILKHLRSKRQTAEATLNELQKQSSSLDSTKLRSIASNYTVTFLQITEKLLSGTSEGNPSANGQTLDEEKSQQGDCGEWVDAYKEAIYIDPEEWNIPYWSSKLYGGQQLERLMAEFKAVCDNSKISEVKMDDIATASGINKLNNIPNYAWAASDLTSLISRDTFVPLIEQLCERAMYIMKRLTDIADKVIDSRRKSRCIGSSPFGGNGLNNINSGGNNGININDRLSNTDMDSLDQYPFFTHHVKNLYYDFVHRAAKGCKEKCMDEFYSSRTIYWELTEHPDSSLPSIRNDHHETKTAVCQLATKLFDSIRQRITKNVLLKLYNFFLVPMQTDLWNEIQAQITCLSNEQLEQLFEVQATREQLKQEEKKQQQILEKYSQIDEQFLKAASLFCRPLSNPTPSA
On to B1, for which the binding result is given as “binds weakly”.
